Patent US4874856A, “3-(substituted)propenyl-7-(aminothiazolylacetamido) ceph-3-em-4-carboxylic acids and esters thereof” (Bristol-Myers Company, priority 1987, dated 1989)

Assay: Mouse blood levels after oral administration (Table 2)
Conditions: in vivo

N[C@@H](C(=O)N[C@@H]1C(=O)N2C(C(=O)O)=C(Cl)CS[C@H]12)c1ccccc1 [Cefaclor]
Cmax (20 mg/kg): 8500 ng/mL
Cmax (100 mg/kg): 26000 ng/mL
